No constants are given. Whether binding was seen depends on the method and setting. Binding seen in cells or lysates may run through a third protein. Some results given as binding are weak or reduced against the parent protein; the word gives no strength.
Biological target: Flag‐MDM2 expressed in 293T cells (UniProt Q00987)
Experiment: co-IP; 293T cells transfected with HA‐AR and Flag‐MDM2, anti‐Flag immunoprecipitate, without drug (natural conditions)

Protein sequences, listed by entry. Tags and fused reporters are not part of them.
UniProt Q00987: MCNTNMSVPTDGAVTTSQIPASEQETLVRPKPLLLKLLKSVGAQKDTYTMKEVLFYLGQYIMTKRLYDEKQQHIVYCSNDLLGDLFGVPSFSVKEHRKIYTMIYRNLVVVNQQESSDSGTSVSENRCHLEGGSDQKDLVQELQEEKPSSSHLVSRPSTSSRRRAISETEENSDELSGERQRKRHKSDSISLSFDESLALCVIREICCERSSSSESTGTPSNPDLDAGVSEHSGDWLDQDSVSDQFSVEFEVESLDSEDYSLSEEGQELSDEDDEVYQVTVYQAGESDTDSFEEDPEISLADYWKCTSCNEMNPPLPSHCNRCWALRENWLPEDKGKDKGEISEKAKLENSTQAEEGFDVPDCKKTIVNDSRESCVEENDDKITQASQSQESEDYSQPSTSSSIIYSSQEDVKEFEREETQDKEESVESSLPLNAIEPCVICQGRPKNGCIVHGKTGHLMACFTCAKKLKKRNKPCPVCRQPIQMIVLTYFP
UniProt P10275: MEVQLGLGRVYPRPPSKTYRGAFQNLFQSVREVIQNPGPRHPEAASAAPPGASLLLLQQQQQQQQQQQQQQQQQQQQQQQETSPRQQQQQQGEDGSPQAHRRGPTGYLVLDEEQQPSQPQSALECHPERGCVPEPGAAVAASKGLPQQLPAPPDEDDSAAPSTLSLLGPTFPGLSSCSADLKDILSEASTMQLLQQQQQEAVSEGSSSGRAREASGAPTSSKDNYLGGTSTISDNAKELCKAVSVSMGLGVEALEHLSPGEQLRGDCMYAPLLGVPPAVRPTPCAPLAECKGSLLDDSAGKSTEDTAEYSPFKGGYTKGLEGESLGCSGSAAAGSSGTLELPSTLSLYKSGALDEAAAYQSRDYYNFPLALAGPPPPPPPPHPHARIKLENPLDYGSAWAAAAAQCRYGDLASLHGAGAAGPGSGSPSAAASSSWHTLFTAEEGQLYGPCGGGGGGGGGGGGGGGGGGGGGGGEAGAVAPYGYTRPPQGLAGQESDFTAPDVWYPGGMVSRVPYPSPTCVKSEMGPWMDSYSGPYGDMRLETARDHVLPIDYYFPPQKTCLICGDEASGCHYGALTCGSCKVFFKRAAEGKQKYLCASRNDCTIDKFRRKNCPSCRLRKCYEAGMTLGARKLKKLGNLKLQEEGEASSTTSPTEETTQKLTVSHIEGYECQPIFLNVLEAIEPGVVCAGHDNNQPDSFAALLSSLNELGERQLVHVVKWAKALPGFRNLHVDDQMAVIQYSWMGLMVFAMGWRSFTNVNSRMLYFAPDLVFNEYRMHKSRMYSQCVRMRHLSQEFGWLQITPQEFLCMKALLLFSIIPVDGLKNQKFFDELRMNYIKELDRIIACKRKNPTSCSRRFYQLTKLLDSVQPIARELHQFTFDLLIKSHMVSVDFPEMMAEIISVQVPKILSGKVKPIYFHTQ

**Q.** “HA‐AR (androgen receptor) expressed in 293T cells (from UniProt P10275 1-920)” was tested. Which binding did it give?
**A.** The binding was “binds weakly”.
